# The other results are listed elsewhere or left out. Values are worked out from sequencing counts and are noisy.
# T1: Homer1 EVH1 domain
# T1 chain: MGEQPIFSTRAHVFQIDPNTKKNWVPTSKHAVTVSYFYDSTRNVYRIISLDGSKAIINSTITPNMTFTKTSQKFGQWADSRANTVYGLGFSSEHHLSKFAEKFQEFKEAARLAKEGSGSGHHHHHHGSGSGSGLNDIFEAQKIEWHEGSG
# Biological target: T1, Homer1 EVH1 domain
# Assay: enrichment score (AUC of log2 frequency ratio across FACS sorting rounds) (log2 AUC); higher = stronger enrichment for Homer1 EVH1 binding
row,Binder,enrichment score
1,MAESAGASSFFPLVVLLLAGSGGSGPRGVQALLCAY,2.68
2,QTNGITLINWWAMARVIFEVMLVVVGMIILISYCIR,0.476
3,GSTRKVFMMRQLAASFVMWTPVWLVMVVVFSKGKIC,1.18
4,RSLFNSPERAKYLGNLIKGVKRILENPQGLSDPGNY,0.00981
5,LGLLLACFGGAVLYILTRADWKRPSQAEEQALSMDF,0.0396
6,LISGVMTSKEIILGLCLLSLVLSMILMVIIRYISRV,-1.6
7,GKKSISLAGCGTQIFFYVSLLGAECFLLAVMAYDRY,1.25
8,VWSVLFLPICTTVFIIFSRIDLFHPIQWLSDSFSDL,0.308
9,FISSYYGINLASAFIILVLIGTWAFLTAGGSCRSLK,2.11
10,LYTMRRGGLFYATGLCQLCTSVAVFTGALIYAIHAD,2.51
11,SHKEILQVIQREGLKEIRSGTSPLACLNAMLHTNSR,1.56
12,KHAVLGLYLLVFLILVGIFILAVSRPRSSPDDLKAL,-3.18
13,MVLLSLWLIAAALVEVRTSADGQAGNEEMVQIDLPI,-2.44
14,SNQELRKMGLDFAGFTAHMFIGICLVLLVCFPLLRL,2.47
15,MAIGNWTEISEFILMSFSSLPTEIQSLLFLTFLTIY,-2.67
16,VENTKKLLRFNPLDPFVLSIKVFPFLTPILEALNIT,-2.56
17,PFIVLVTVENELSYVLKVFMSLMSLTAFSYASQYIA,2.3
18,HLGEKTYHYVPEFRKVSIAATIIYAYAWLVPLALWG,2.02
19,ECLLRPWFYKILAVVLSIFSVIVVWSECTFFSTTPG,3.35
20,MEPQLGPEAAALRPGWLALLLWVSALSCSFSLPASS,3.09
21,PPAGTPDAAHPGPSVVPVLLPLLAGTLLLLGRPLHR,2
22,KEYGSLKDSTKDDNSNPGGKTDEPKGKTEAYLEAIR,-0.446
23,NLTSVLERLEDTKDNSSVRKETKLFSLFLMNIIFRK,0.81
24,QDPKMQVYKDEQVVVIKDKYPKARYHWLVLPWTSIS,0.928
25,MALNNFLFAQCACYFLAFLFSFVVVVPLSENGHDFR,2.22
26,SVSTSENSTSALADVSWTQFNIIILTVIIIVVVLLM,-0.686
27,PEHNTDFGAFKHLYMLLVNAFNLSQNSLSKKSLNVW,-1.89
28,ELWAPNMCHLQLMETFLILMMGSWLMQAGFILYRPG,3.31
